For this assay, the target named is Flag-PPARγ (peroxisome proliferator-activated receptor-γ), expressed by lentivirus in human preadipocytes (UniProt P37231). Nature of the assay: affinity purification with mass spectrometry; Flag-tagged baits expressed by lentivirus in human preadipocytes, cells treated with rosiglitazone (1 µM) and insulin (70 nM) for 24 h; lysis in 50 mM Tris pH 7.5, 150 mM NaCl, 1% NP 40, 0.25% sodium deoxycholate, 10% glycerol, 1 mM EGTA; anti-Flag M2 magnetic beads overnight at 4°C, wash with 250 mM NaCl, elution with Flag peptide, LC-tandem mass spectrometry; three independent experiments.

Chains of the proteins cited; added tags and fusions are not shown.
UniProt P37231: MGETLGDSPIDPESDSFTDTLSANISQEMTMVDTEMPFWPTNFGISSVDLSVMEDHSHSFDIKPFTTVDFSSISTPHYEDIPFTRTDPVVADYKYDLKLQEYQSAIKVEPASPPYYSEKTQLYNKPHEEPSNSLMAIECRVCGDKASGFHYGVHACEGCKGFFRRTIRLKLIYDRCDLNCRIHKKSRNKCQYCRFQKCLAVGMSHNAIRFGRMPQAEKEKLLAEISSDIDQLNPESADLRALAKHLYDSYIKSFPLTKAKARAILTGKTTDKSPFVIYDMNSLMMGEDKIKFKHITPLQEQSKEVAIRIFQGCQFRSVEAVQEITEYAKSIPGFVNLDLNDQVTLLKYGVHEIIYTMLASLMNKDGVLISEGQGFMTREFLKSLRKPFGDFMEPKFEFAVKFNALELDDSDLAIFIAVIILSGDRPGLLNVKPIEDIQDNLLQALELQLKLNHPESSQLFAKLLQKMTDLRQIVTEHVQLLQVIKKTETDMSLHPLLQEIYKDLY
UniProt Q9NXV2: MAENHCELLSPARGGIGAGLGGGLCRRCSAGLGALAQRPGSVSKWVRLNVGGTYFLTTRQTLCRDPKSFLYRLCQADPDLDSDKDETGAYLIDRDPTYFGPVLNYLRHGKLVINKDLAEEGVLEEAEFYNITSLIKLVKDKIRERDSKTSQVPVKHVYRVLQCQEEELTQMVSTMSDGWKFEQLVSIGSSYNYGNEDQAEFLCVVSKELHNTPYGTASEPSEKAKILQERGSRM
UniProt Q15208: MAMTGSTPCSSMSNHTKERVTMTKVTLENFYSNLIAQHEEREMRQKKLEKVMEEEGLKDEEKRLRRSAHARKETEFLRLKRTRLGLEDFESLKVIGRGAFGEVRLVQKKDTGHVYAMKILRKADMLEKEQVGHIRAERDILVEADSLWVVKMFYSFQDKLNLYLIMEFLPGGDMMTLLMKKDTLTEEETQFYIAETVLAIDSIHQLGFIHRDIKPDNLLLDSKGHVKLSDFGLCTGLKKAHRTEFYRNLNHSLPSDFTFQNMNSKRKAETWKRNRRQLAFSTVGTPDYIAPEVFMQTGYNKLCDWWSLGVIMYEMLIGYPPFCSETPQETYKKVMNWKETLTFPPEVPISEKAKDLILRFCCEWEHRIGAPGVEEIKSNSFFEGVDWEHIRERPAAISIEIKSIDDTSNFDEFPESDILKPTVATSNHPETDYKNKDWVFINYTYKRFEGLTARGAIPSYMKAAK
UniProt Q9Y2H1: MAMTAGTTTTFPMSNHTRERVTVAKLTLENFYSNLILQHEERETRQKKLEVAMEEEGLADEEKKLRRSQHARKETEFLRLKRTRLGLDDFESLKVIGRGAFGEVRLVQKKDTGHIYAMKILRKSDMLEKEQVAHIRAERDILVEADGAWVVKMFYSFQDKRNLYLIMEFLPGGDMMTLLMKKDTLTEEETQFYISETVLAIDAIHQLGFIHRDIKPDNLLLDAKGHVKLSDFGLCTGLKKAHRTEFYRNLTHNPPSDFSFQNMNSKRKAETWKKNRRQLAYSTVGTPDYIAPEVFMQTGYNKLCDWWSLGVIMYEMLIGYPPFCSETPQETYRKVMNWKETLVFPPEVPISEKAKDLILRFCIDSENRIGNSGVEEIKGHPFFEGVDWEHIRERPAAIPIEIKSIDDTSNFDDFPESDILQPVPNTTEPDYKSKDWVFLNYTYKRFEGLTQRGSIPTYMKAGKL

No constants are given. Whether binding was seen depends on the method and setting. In cells and extracts the contact can be indirect. These calls come from enrichment with a bait or labelling near it, and not all partners need be listed.

Consider “BTB/POZ domain-containing protein KCTD5 (Potassium Channel Tetramerization Domain Containing 5), endogenous (from UniProt Q9NXV2 1-234)”, for which the binding entry is given as “binds”.

With “serine/threonine-protein kinase 38 (STK38), endogenous (from UniProt Q15208 1-465) (enzyme)”, the binding result is “binds”.

Regarding “STK38-like protein (STK38L), endogenous (from UniProt Q9Y2H1 1-464) (enzyme)”, the binding entry is “binds”.

B1: PPM1B (Protein Phosphatase 1B), endogenous (enzyme, UniProt O75688 1-479)
chain: MGAFLDKPKTEKHNAHGAGNGLRYGLSSMQGWRVEMEDAHTAVVGIPHGLEDWSFFAVYDGHAGSRVANYCSTHLLEHITTNEDFRAAGKSGSALELSVENVKNGIRTGFLKIDEYMRNFSDLRNGMDRSGSTAVGVMISPKHIYFINCGDSRAVLYRNGQVCFSTQDHKPCNPREKERIQNAGGSVMIQRVNGSLAVSRALGDYDYKCVDGKGPTEQLVSPEPEVYEILRAEEDEFIILACDGIWDVMSNEELCEYVKSRLEVSDDLENVCNWVVDTCLHKGSRDNMSIVLVCFSNAPKVSDEAVKKDSELDKHLESRVEEIMEKSGEEGMPDLAHVMRILSAENIPNLPPGGGLAGKRNVIEAVYSRLNPHRESDGASDEAEESGSQGKLVEALRQMRINHRGNYRQLLEEMLTSYRLAKVEGEESPAEPAATATSSNSDAGNPVTMQESHTESESGLAELDSSNEDAGTKMSGEKI
With B1, the binding entry is listed as “binds”.

The values are drawn from publication PMC8726646.
